## Screening data, single-dose tests

By UniProt entry, the sequences of proteins in these tests, tags left out. Residues count along the entry.
UniProt P9WFT3, whole entry: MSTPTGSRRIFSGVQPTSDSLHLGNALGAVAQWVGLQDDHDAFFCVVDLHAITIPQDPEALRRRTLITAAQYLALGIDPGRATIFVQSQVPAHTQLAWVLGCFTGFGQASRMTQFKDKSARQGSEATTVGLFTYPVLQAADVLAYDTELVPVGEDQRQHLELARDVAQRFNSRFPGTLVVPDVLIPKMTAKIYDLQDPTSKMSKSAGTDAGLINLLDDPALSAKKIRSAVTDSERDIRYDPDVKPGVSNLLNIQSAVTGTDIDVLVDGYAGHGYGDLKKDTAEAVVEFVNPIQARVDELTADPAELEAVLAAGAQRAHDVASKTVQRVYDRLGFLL
UniProt I6X8D2, whole entry: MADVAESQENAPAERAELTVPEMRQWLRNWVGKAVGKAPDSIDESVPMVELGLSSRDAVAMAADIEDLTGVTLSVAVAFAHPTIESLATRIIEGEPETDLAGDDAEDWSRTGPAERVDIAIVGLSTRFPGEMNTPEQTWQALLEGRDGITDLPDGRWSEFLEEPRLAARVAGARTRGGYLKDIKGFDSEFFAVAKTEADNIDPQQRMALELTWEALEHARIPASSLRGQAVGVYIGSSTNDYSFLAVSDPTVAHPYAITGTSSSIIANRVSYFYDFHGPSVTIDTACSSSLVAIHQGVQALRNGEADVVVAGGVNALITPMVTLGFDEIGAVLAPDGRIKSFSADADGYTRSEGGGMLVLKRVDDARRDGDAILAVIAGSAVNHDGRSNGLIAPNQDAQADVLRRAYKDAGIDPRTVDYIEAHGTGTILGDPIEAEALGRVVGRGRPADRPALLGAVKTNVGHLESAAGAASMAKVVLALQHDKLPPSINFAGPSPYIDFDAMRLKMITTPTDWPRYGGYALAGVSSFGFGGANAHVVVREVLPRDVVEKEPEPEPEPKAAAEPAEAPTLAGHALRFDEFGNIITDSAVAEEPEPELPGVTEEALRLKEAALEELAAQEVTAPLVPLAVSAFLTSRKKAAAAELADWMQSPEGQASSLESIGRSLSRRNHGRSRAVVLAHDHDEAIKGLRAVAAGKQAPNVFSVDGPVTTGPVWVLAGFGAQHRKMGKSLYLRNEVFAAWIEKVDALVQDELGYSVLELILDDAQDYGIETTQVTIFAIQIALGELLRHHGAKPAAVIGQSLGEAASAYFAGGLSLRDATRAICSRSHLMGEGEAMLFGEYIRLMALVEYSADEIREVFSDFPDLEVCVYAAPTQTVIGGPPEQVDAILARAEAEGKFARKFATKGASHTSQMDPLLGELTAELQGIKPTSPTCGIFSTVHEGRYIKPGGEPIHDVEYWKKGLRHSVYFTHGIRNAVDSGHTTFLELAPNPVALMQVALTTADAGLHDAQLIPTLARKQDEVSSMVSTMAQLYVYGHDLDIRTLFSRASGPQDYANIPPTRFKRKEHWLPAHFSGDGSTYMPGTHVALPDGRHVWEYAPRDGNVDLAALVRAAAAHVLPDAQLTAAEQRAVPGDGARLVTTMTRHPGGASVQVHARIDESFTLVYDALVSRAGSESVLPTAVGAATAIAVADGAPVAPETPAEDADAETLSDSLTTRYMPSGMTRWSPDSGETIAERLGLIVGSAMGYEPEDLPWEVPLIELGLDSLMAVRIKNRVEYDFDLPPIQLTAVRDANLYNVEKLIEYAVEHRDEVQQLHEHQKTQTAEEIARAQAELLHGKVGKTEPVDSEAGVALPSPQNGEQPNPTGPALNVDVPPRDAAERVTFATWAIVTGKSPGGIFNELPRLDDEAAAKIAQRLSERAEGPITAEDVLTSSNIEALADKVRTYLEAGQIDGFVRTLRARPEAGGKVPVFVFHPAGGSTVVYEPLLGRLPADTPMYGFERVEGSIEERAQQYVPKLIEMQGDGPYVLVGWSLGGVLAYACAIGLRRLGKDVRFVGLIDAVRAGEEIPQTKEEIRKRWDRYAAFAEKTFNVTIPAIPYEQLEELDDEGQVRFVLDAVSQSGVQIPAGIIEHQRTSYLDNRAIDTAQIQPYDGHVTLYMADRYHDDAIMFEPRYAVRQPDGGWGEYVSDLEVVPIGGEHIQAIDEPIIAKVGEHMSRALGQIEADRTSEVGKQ
UniProt Q4DA54, 1-478: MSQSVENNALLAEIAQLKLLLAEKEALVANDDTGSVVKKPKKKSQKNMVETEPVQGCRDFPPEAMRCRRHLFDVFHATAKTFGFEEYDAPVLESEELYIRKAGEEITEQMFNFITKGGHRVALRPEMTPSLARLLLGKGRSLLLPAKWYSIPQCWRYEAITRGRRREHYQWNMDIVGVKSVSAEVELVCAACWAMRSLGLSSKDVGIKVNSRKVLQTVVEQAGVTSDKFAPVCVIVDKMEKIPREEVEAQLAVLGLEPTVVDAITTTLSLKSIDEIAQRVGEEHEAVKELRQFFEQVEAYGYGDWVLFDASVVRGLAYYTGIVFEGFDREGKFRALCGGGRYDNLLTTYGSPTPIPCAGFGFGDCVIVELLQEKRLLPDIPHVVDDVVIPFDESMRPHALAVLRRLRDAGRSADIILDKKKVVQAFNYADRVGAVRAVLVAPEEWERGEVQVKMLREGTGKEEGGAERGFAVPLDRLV

From ChEMBL document CHEMBL3988442, “University of Dundee, Small-Polar-MMV Screening Library” (2021).

Each number is a percent effect as filed.
The controls that fix the scale are not given in the record; negative values are as filed.
The compounds are a random part of those screened.
Two or more numbers in one place are separate tests of the same structure; such repeats can differ widely.
A dash means the value is not listed here; it may have been measured.

MtTrpRS: 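Tryptophan-tRNA ligase, Mycobacterium tuberculosis (UniProt P9WFT3). Enzyme assay of tryptophanyl-tRNA synthetase; the read-out is not stated. Tested at 10 µM. Higher most likely means stronger inhibition; the record gives no direction and few retests gave an IC50. Size under these conditions: about 65,000 compounds, about 64 of them at 50% or above in at least one test.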
Leishmania in macrophages: 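Cell assay of Leishmania donovani living inside macrophages; the read-out is not stated. Compounds at 30 µM. Direction is inferred from retests: higher values go with stronger inhibition. Size under these conditions: about 69,000 compounds, about 1,000 of them at 50% or above in at least one test.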
Pks13 thioesterase: 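Polyketide synthase Pks13, Mycobacterium tuberculosis (UniProt I6X8D2). Enzyme assay of the thioesterase domain of polyketide synthase 13; the read-out is not stated. Compounds at 30 µM. Higher reads as stronger inhibition (inferred from which compounds were picked for retests). Size under these conditions: about 67,000 compounds, about 300 of them at 50% or above in at least one test.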
TcHisRS: 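Histidine-tRNA ligase, Trypanosoma cruzi CL Brener (UniProt Q4DA54). Enzyme assay of histidyl-tRNA synthetase; the read-out is not stated. Concentration: 30 µM. The record gives no direction; compounds that gave an IC50 in retests scored well above the rest, so higher reads as stronger inhibition. Of about 69,000 compounds tested this way, about 31 (0.045%) reached 50% or more in at least one test.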

structure | MtTrpRS | Leishmania in macrophages | Pks13 thioesterase | TcHisRS
O=C(O)[C@]12CCCN(Cc3ccncc3)[C@@H]1CCN(c1cnccn1)C2 | -3.197% | - | -7.133% | 2.075%
O=C(O)C(F)(F)F.O=C(O)C(F)(F)F.[H][C@@]12CC(=O)N(Cc3cccc(C)n3)[C@@]1([H])CCN2Cc1ccsc1 | - | -2.447% | - | -
[H][C@@]12CCN(Cc3cccs3)C[C@@]1([H])O[C@H](c1ccnc(C)n1)C2 | - | 13.73% | - | -
Cc1nn(C)c(C)c1C1CCCN1c1ncnc2[nH]ccc12 (centres unmarked) | 0.374% | -1.188% | -38.96% | 7.853%
COc1cc(-c2n[nH]c(CC#N)n2)cc(OC)c1OC | 1.489% | 0.6793% | 34% | 7.921%
Cc1cc(C)n(-c2cncc(NCCNC(=O)C3CCCC3)n2)n1 | 0.8497% | 4.112% & -22.06% | 40.34% | 4.819%
Cc1cccc(S(=O)(=O)N2C[C@@H]3OCCN(C(C)C)[C@@H]3C2)c1 | -0.7757% | - | -29.77% | 4.813%
NC(=O)CCC1CCCN(c2ccnc3cc(F)ccc23)C1 (centres unmarked) | -5.616% | -9.462% | 14.87% | 2.97%
O=C(NCC(F)(F)F)C1CN(C(=O)c2cnccn2)C1 | -2.964% | -9.137% & 2.184% | -29.47% | 0%
CS(=O)(=O)NCc1n[nH]c2c1CCN(C(=O)c1ccsc1)C2 | 10.39% | -22.28% | -10.51% | 4.865%
COCCCNc1cc(C(=O)N2CCOCC2)ccc1C | -1.867% | 6.301% | 0.08355% | 13.25%
Cc1cccc(CN2C(=O)CCC23CCN(C(=O)N2CCCC2)CC3)n1 | 0.4975% | - | -18.82% | 2.404%
O=C(NCc1ccccc1CO)Nc1ccc2c(c1)CCC2 | -5.589% | 14.5% | 0.0747% | -5.102%
Cc1cccc(-n2c(C)cc(C(=O)NS(C)(=O)=O)c2C)c1 | -4.355% | 22.97% | -12.41% | 6.857%
CC(C#N)CN(C)C(=O)CCNC(=O)OCC(F)(F)F (centres unmarked) | 4.258% | 1.858% | -6.528% | 9%
CCC(=O)N1CCN(C(=O)NCCOc2ccc3c(c2)CCC3)CC1 | -4.679% | 23.98% | -20.99% | 7.331%
c1cc(CN2CCCN(c3ccc4cc[nH]c4n3)CC2)ccn1 | -4.678% | 7.61% | 25.86% | 17.32%
CCCc1nc(CN(CC)C(=O)c2onc3ccccc23)no1 | -3.377% | -11.72% | 4.492% | 3%
O=C(NCCOCC(F)(F)F)c1ccc(-c2ccco2)[nH]c1=O | -0.07825% | -6.284% | 0.6221% | 6.015%
CC(C)C(=O)NC1CC2(CCN(CC(=O)N(C)C)CC2)c2ccccc21.O=C(O)C(F)(F)F (centres unmarked) | - | 39.97% | - | -
CCOc1ccc(Cl)c(C(=O)NC(C)C(N)=O)n1 (centres unmarked) | -3.792% | 23.73% | -35.86% | -0.9852%
CN(C)Cc1nnc2n1CCCN(C(=O)c1c[nH]cn1)C2 | 2.151% | 27.85% & 14.8% | -35.21% | 2.151%
CCNC(=O)NC(=O)C(C)N1CCCc2cc(OC)ccc2C1 (centres unmarked) | 8.462% | 5.347% | -21.44% | 0%
N#Cc1ccccc1CN1CCC2(CC1)CC(c1ccccc1)C(=O)N2 (centres unmarked) | 36.94% | -8.884% | 5.31% | 2.299%
Cc1noc(C)c1CC(=O)NCCc1cccs1 | 7.123% | -22.7% | 18.43% | 4.04%
CC(C)COC[C@H]1CC[C@H]2[C@H](CCN2C(=O)c2ccncc2F)O1 | -4.991% | - | -12.53% | 0.9346%
Cc1cc(C(=O)N2CCC[C@]3(C[C@@H](OCC4CC4)CO3)C2)no1 | -4.222% | 31.83% | 5.19% | 3.922%
COc1ccc2c(c1)CCCN2C(=O)NC1CCCCNC1=O (centres unmarked) | -2.053% | -37.88% | -22.99% | 10.71%
Cc1ccc(CN2CCc3ncc(CNC(=O)C4CCC4)n3CC2)o1 | -6.443% | - | -11.15% | 13.08%
CCc1ccc(C2CC(=O)Nc3c2c(=O)n(C)c2ncnn32)cc1 (centres unmarked) | -8.902% | 0.8757% | -12.12% | 4.142%
COc1c(C2CCCN2C(=O)c2cccn2C)c(C)nn1C (centres unmarked) | 1.958% | 6.273% | 3.064% | 0%
O=C1CCC(C(=O)NCCOc2cccc(Cl)c2Cl)CN1 (centres unmarked) | 0.3812% | 18.68% | 1.442% | 12.07%
Cc1cccc(CN2C(=O)CC[C@@H]3[C@H]2CCN3CC2CCOCC2)n1 | -2.291% | - | -33.8% | 2.732%
CC1Cc2ccccc2N1Cc1occc1C(=O)NCC(=O)N(C)C (centres unmarked) | 0% | 30.04% | -17.63% | -1.02%
CCc1nccn1C1CCCN(C(=O)c2ccc3nncn3c2)C1 (centres unmarked) | -3.437% | 3.834% | -8.123% | 3.053%
CN1CCCC1CCn1ccnc1-c1nc2ccccc2[nH]1 (centres unmarked) | 1.857% | 26.03% | -30.45% | 9.827%
COc1cccc(CN2CCN(c3ccc4nncn4n3)C(C)C2)c1 (centres unmarked) | 2.158% | 41.41% | -1.444% | 11.45%

For reference, 2 entries once more:

structure	MtTrpRS	Leishmania in macrophages	Pks13 thioesterase	TcHisRS
Cc1cccc(S(=O)(=O)N2C[C@@H]3OCCN(C(C)C)[C@@H]3C2)c1	-0.7757%	-	-29.77%	4.813%
Cc1ccc(CN2CCc3ncc(CNC(=O)C4CCC4)n3CC2)o1	-6.443%	-	-11.15%	13.08%